From PubChem BioAssay AID504444 (National Center for Advancing Translational Sciences (NCATS), 2011)
Among all 360,000 compounds or so, about 7,500 (2.1%) were called active. This list was built around the results that the source calls inconclusive (neither active nor inactive); the mix of calls is not that of the screen. Calls come from the whole dose curve; as a rule, active = well fitted inhibition curve with a large enough effect; inconclusive = small, poorly fitted or top-dose-only effect, or effect the other way; inactive = flat fitted curve, though single readings scatter. A potency beside an inconclusive call is a rough fit, not a confirmed value.

Assay: Nrf2 qHTS screen for inhibitors; note: nearly all actives have a fitted effect of over 60% in size
Details: A549 ARE-Fluc reporter, luciferase luminescence, 18-24 h; activity change, negative = inhibition: at 46 µM (top of the series)
Method in brief: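 Nrf2 function is reported as luminescence of an ARE-controlled luciferase in A549 cells. Compounds were tested at several concentrations, and a CellTiter-Fluor read on the same wells flagged cytotoxicity.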
% is set by controls: 0 for no effect and ±100 for the full control effect; potency is the fitted concentration of half-maximal effect.

Structure (SMILES)	Potency	activity change, negative = inhibition
CCOc1ccc(NC(=O)NCCN2CCN(c3ccccc3F)CC2)cc1	inconclusive: 20.6 µM [falling, partial curve, poor fit]	–
CN(Cc1cnc2nc(N)nc(N)c2n1)c1ccc(C(=O)NC(CCC(=O)O)C(=O)O)cc1 (stereo unspecified)	active: 0.291 µM	–
CCOC(=O)c1cccc(NC(=O)c2cc3cc4ccc(C)cc4nc3s2)c1	inconclusive: 2.06 µM [falling, full curve, poor fit]	–
CSc1ccc(CCNC(=O)c2cc3c(-c4ccccc4F)nn(C)c3s2)cc1	inconclusive: 29.1 µM [falling, partial curve, poor fit]	–
CC(=O)c1cccc(-c2csc3ncnc(Sc4nnnn4C)c23)c1	inconclusive: 20.6 µM [falling, single point]	–
Nc1c(C(=O)NCc2ccccc2)nnn1Cc1cccc(Br)c1	inconclusive: 3.26 µM [activator, partial curve, poor fit]	–
Cc1cccc(NC(=O)Cn2c(=O)n(CCC(=O)N3CCc4ccccc4C3)c(=O)c3ccccc32)c1	–	inactive: -16.2%
CC(C)(C)C1=NN=C2c3ccccc3C(=O)C21 (stereo unspecified)	inconclusive: 20.6 µM [falling, single point]	–
O=C(CCCOc1ccccc1)Nc1cccnc1	–	inactive: 10.8%
Cc1nn(-c2ccc(F)cc2)c(Cl)c1/C=C(\CCC(=O)O)c1nc2ccccc2s1	inconclusive: 32.6 µM [falling, partial curve, poor fit]	–
COc1cc(C2c3c(oc4ccccc4c3=O)C(=O)N2Cc2ccco2)ccc1O (stereo unspecified)	–	inactive: 8.46%
CN(C)S(=O)(=O)n1cc(/C=C(\NC(=O)c2ccccc2)C(=O)N2CCCC2)c2ccccc21	inconclusive: 29.1 µM [falling, partial curve, poor fit]	–
CCCCc1oc2ccccc2c1C(=O)c1cc(I)c(OCCN(CC)CC)c(I)c1	–	inactive: 2.18%
O=C1CCn2nc(-c3ccc(Cl)cc3)cc2N1	inconclusive: 14.6 µM [activator, single point]	–
O=C(Cc1cccs1)Nc1nc(-c2ccc(F)c(F)c2)cs1	inconclusive: 0.651 µM [falling, full curve, poor fit]	–
COCCCN=Cc1c(-c2ccccc2)[nH]n(-c2nc3ccccc3s2)c1=O	inconclusive: 23.1 µM [activator, single point]	–
CCOC(=O)c1c(-c2ccc(C)c(C)c2)csc1NC(=O)C1CC=CCC1C(=O)O (stereo unspecified)	inconclusive: 32.6 µM [falling, single point]	–
CC(C)(C)C(=O)Cn1ncc(Cl)c(Cl)c1=O	inconclusive: 29.1 µM [falling, single point]	–
COc1ccccc1/C=N/NC(=O)CC(=O)NCCc1ccccc1	–	inactive: -0.408%
C[C@H]1CN([C@@H](C)CO)C(=O)c2cccc(NC(=O)Nc3ccc(C(F)(F)F)cc3)c2O[C@@H]1CN(C)S(=O)(=O)c1ccccc1	inconclusive: 18.4 µM [falling, single point]	–
CC(C)c1cc(NCCOCCO)n2c(nc3ccccc32)c1C#N	inconclusive: 4.61 µM [falling, partial curve, poor fit]	–
Cc1ccc(C)c(NC(=O)CCCN2C(=O)C(c3ccccc3)Oc3cccnc32)c1 (stereo unspecified)	–	inactive: -16.4%

Rewritten field by field: part of the list above.
Nc1c(C(=O)NCc2ccccc2)nnn1Cc1cccc(Br)c1
  Potency: inconclusive: 3.26 µM [activator, partial curve, poor fit]
Cc1nn(-c2ccc(F)cc2)c(Cl)c1/C=C(\CCC(=O)O)c1nc2ccccc2s1
  Potency: inconclusive: 32.6 µM [falling, partial curve, poor fit]
CCCCc1oc2ccccc2c1C(=O)c1cc(I)c(OCCN(CC)CC)c(I)c1
  activity change, negative = inhibition: inactive: 2.18%
COCCCN=Cc1c(-c2ccccc2)[nH]n(-c2nc3ccccc3s2)c1=O
  Potency: inconclusive: 23.1 µM [activator, single point]

(continued)

Structure (SMILES)	Potency	activity change, negative = inhibition
CC(C)(CN1CCc2ccccc2C1)NS(=O)(=O)c1ccc(Cl)cc1	inconclusive: 18.4 µM [falling, single point]	–
CC1Cc2ccccc2N1S(=O)(=O)c1cccc(C(=O)NCCCn2ccnc2)c1 (stereo unspecified)	inconclusive: 29.1 µM [falling, single point]	–
COc1ccc2c(c1)CC/C(=C\c1ccc(OC)c(Cn3nc(C)cc3C)c1)C2=O	inconclusive: 14.6 µM [falling, single point]	–
COc1ccc(CNC(=S)N/N=C(/C)c2ccccc2)cc1	inconclusive: 2.91 µM [activator, partial curve, poor fit]	–
COc1ccc(Nc2nc(N)nc(CSC(=S)N3CCN(c4ccccc4)CC3)n2)cc1	inconclusive: 20.6 µM [falling, partial curve]	–
CC(=O)Nc1ccc(S(=O)(=O)N(CC(=O)Nc2cc(C)on2)Cc2ccc(F)cc2)cc1	inconclusive: 2.31 µM [falling, single point]	–
CCN(CC)C(=O)/C=C/c1ccccc1	inconclusive: 13 µM [activator, partial curve, poor fit]	–
CC(C)(C)c1ccc(C(=O)NCCn2c(N)c(C#N)c3nc4ccccc4nc32)cc1	inconclusive: 16.4 µM [falling, partial curve, poor fit]	–
Cc1ccc(Nc2nnc(SCC(=O)Nc3cccc(S(=O)(=O)NC4=NCCCCC4)c3)s2)c(C)c1	inconclusive: 18.4 µM [falling, single point]	–
Cc1ccc(NC(=O)CCCNC(=O)c2ccc(Cl)cc2)cc1S(=O)(=O)N1CCCCC1	active: 16.4 µM	–
COc1cccc(NC(=O)c2ccc(-c3nc(COc4ccc(C)cc4)c(C)o3)cc2)c1	active: 5.17 µM	–
COc1ccccc1NC(CC(=O)c1ccccc1)C(=O)OCC(=O)c1ccc(C)c(C)c1 (stereo unspecified)	inconclusive: 16.4 µM [activator, partial curve]	–
O=C(c1ccccc1)N1CCN(c2ccc([N+](=O)[O-])c(NCc3cccnc3)c2)CC1	inconclusive: 9.2 µM [falling, partial curve, poor fit]	–
O=C(Nc1ccc(N2CCN(C(=O)c3ccccc3)CC2)c(Cl)c1)c1ccco1	inconclusive: 23.1 µM [falling, partial curve]	–
Cc1ccc2nc3c(nc2c1C)C(O)=C3O	–	inactive: 0.0585%
Nc1nc2ccccc2n1/N=C/c1ccc(-c2ccccc2)o1	inconclusive: 13 µM [activator, partial curve]	–
O=C1C2C(c3ccccc3)CC=CC2[C@H](c2ccc(C(F)(F)F)cc2)N1Cc1ccccc1 (stereo partly specified)	inconclusive: 8.2 µM [falling, partial curve]	–
Nn1c(SCc2ccc(Br)cc2)nnc1-c1ccccn1	–	inactive: 22.3%
CC1=CC2=NC(=O)/C(=C/c3cccn3Cc3ccccc3)C(=N)N2O1	–	inactive: -3.85%
CCOC(=O)C1CCN(C(=O)c2cc(COc3ccc(F)cc3F)on2)CC1	inconclusive: 11.6 µM [activator, partial curve]	–
Cc1cccc(C(=O)n2c(=S)nc3ccccn32)c1	inconclusive: 0.103 µM [activator, full curve, poor fit]	–
Nc1ccccc1SC/C=C/CSc1ccccc1N	inconclusive: 3.66 µM [activator, full curve]	–

Structure (SMILES)	Potency	activity change, negative = inhibition
Cc1cccc(-n2ncc3c(NCCCn4ccnc4)ncnc32)c1	inconclusive: 7.31 µM [activator, partial curve, poor fit]	–
O=c1[nH]c(=O)n([C@H]2C[C@H](O)[C@@H](CO)O2)cc1I	–	inactive: 5.67%
Cc1ccc(SCCNC(=S)Nc2ccc(C)c(C)c2)cc1	inconclusive: 18.4 µM [falling, single point]	–
Cc1ccc(/C=C2/C(=O)c3ccc(C(=O)O)cc3C2=O)o1	inconclusive: 2.59 µM [activator, partial curve]	–
Cc1cccc(C)c1NC(=O)CN(C)C(=O)c1cccc(S(=O)(=O)N2CCN(c3ccc(F)cc3)CC2)c1	active: 5.17 µM	–
Cc1ccc(-n2nnc(-c3nsc(NC(=O)c4ccc(C)c(C)c4)n3)c2C)cc1	inconclusive: 6.51 µM [falling, single point]	–
COc1ccc(/C=C2/SC(=S)N(Cc3ccccc3)C2=O)cc1O	inconclusive: 25.9 µM [falling, partial curve, poor fit]	–
CC(C)Cc1ccc(C(C)C(N)=NCCc2ccccc2)cc1 (stereo unspecified)	inconclusive: 29.1 µM [activator, single point]	–
CCN(CC)c1ccc(/C=N/NC(=O)CC(C)C)cc1	inconclusive: 25.9 µM [activator, single point]	–
COCCCn1c(=O)c2ccccc2n(CC(=O)NC2CCCC2)c1=O	–	inactive: 0.519%
CC(=O)Nc1ccc(S(=O)(=O)NCCC(=O)OC(C)C(=O)c2ccc(C)cc2)cc1 (stereo unspecified)	–	inactive: -18.8%
C/C(=N\OC(=O)c1c(-c2ccccc2Cl)noc1C)c1ccncc1	inconclusive: 29.1 µM [falling, single point]	–
CCOc1ccccc1NC(=O)COc1ccc(S(=O)(=O)NC2CCCCC2)cc1	inconclusive: 29.1 µM [falling, single point]	–
CCn1c(CN2CCCCC2)nc2cc(NC(=O)c3ccc([N+](=O)[O-])cc3)ccc21	inconclusive: 4.61 µM [falling, full curve]	–
O=C(CSc1n[nH]c(-c2cccs2)n1)NCc1ccc2c(c1)OCO2	–	inactive: 0.677%
Cc1ccccc1CNC(=O)c1cc(COc2ccc(F)cc2F)on1	inconclusive: 29.1 µM [falling, single point]	–
O=C(Nc1ccc(F)c(F)c1)C1CCCN1S(=O)(=O)c1cccc2nsnc12 (stereo unspecified)	–	inactive: -6.51%
O=C(Nc1ccccc1)C1=C[C@H](c2ccc(C(F)(F)F)cc2)C[C@H](OCCCCO)O1	inconclusive: 20.6 µM [activator, partial curve]	–
COc1cc(C(=O)Nc2ccc(-c3nnc(-c4ccco4)o3)cc2)cc(OC)c1OC	–	inactive: 16.5%
CC(=NC1CCCCC1)C1=C(O)c2ccccc2C1=O	inconclusive: 10.3 µM [activator, partial curve]	–
Clc1ccc(-c2nn3c(-c4ccccc4)nnc3s2)cc1	inconclusive: 0.461 µM [falling, full curve, poor fit]	–
CN(C(=O)c1ccc2c(c1)OCO2)C1(C(=O)NC2CCCCC2)CCCCC1	–	inactive: -4.67%
